# From patent publication US20240287169A1 (AULOS BIOSCIENCE, published 2024)
# B1: clone 2 (17.022), yeast-displayed scFv (scFv, V domains shown)
# VH: EIQLQQSGPELRRPGSSVKLSCKASGYNITDYLIHWVRHRPEHGLEWIGWIDPEDGETRYAQKFQSKATLTADTSSNAAYMQLSSLTPEDTATYFCARSLDSTWIYPFAYWGQGTLVTVSS
# VL: DIVMTQSPFSLAVSEGEMVTINCKSSQSLLRSGNQKNYLAWYQQKPGQSPKLLIYYASTGQSGVPDRFIGSGSGTDFTLTISDVQAEDLADYYCLQHYITPPTFGAGTKLELK
# B2: clone 4 (17.023), yeast-displayed scFv (scFv, V domains shown)
# VH: B1 VH with S99Q, W104Y
# VL: B1 VL
# B3: clone 5 (17.030), yeast-displayed scFv (scFv, V domains shown)
# VH: B1 VH with W104Y, I105D
# VL: B1 VL with T100S
# B4: clone 6 (17.035), yeast-displayed scFv (scFv, V domains shown)
# VH: B1 VH with W104Y, I105N
# VL: B1 VL with Y98W, T100S
# B5: clone 1 (17.021), yeast-displayed scFv (scFv, V domains shown)
# VH: B1 VH with Y32N, W104Y
# VL: B1 VL with I99Q, T100S
# Target: soluble TNFR2
# Experiment: yeast surface display, labeling with a mixture of TNFR2, OX40 and PD1, flow cytometry
row,Binder,binding
1,B1,no binding (tested: 500 nM)
2,B2,no binding (tested: 500 nM)
3,B3,no binding (tested: 500 nM)
4,B4,no binding (tested: 500 nM)
5,B5,no binding (tested: 500 nM)

# Target: OX40
# Experiment: as above
row,Binder,binding
1,B1,no binding (tested: 500 nM)
2,B2,no binding (tested: 500 nM)
3,B3,no binding (tested: 500 nM)
4,B4,no binding (tested: 500 nM)
5,B5,no binding (tested: 500 nM)

# Target: PD1
# Experiment: as above
row,Binder,binding
1,B1,no binding (tested: 500 nM)
2,B2,no binding (tested: 500 nM)
3,B3,no binding (tested: 500 nM)
4,B4,no binding (tested: 500 nM)
5,B5,no binding (tested: 500 nM)

# Target: soluble TNFR2
# Experiment: yeast surface display flow cytometry, labeled with the 500 nM OX40/PD-1/TNFR2 mixture
row,Binder,binding
1,B1,no binding (tested: 500 nM)
2,B2,no binding (tested: 500 nM)
3,B3,no binding (tested: 500 nM)
4,B4,no binding (tested: 500 nM)
5,B5,no binding (tested: 500 nM)

# Target: OX40
# Experiment: as above
row,Binder,binding
1,B1,no binding (tested: 500 nM)
2,B2,no binding (tested: 500 nM)
3,B3,no binding (tested: 500 nM)
4,B4,no binding (tested: 500 nM)
5,B5,no binding (tested: 500 nM)

# Target: PD1
# Experiment: as above
row,Binder,binding
1,B1,no binding (tested: 500 nM)
2,B2,no binding (tested: 500 nM)
3,B3,no binding (tested: 500 nM)
4,B4,no binding (tested: 500 nM)
5,B5,no binding (tested: 500 nM)

# Positions count from the first letter of the chain named. No constants are given. Whether binding was seen depends on the method and setting.
